Results deposited as PubChem BioAssay AID1224828 (NIAID, 2016)
Aim: 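Regulators linking TLR4 signalling to p65 nuclear translocation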 (primary screen). Cells: mouse RAW264.7 G9 macrophage reporter cells (GFP-p65, Tnf promoter-mCherry). Reagent: siRNA pool against mouse genes, 100 nM. Duration: 2 days siRNA transfection, then 40 min LPS before fixation. Challenge: LPS (Salmonella minnesota R595) at 10 ng/ml. Detection: 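Imaged p65 nuclear translocation ratio, normalised to the plate median, converted to robust z-scores and averaged across two replicates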. Reading the numbers: p65 translocation robust z-score: higher = more nuclear NF-kappaB p65 after LPS than the plate median; nuclear/cytoplasmic p65 ratio: higher = more nuclear NF-kappaB p65. Hit rule: 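Called active when z exceeds 3.3 or falls under -1.56 (median of Tlr4 controls), giving activity score of at least 50; no calls for control wells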. Meaning of the calls: active = hit (p65 shift raised or lowered); inactive = no clear change.
The deposit covers about 17,000 reagents; below is a part drawn at random. 762 of them (4.5%) count as active. 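Active calls include both raised and lowered p65 entry, mostly lowered; wells with fewer than 50 cells lack a z-score.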 Raw values vary from plate to plate and are shown uncorrected. A reagent listed more than once was tested more than once; the source does not tell the runs apart. Reagent sequences are not shown.

Serpinb6c
- p65 translocation robust z-score: -1.4
- nuclear/cytoplasmic p65 ratio, rep 1: 1.21
- nuclear/cytoplasmic p65 ratio, rep 2: 1.1
- low cell count flag: enough cells to score
- call: inactive

Grk3
- p65 translocation robust z-score: -1.21
- nuclear/cytoplasmic p65 ratio, rep 1: 1.43
- nuclear/cytoplasmic p65 ratio, rep 2: 1.28
- low cell count flag: enough cells to score
- call: inactive

Grk3
- p65 translocation robust z-score: -0.1
- nuclear/cytoplasmic p65 ratio, rep 1: 1.5
- nuclear/cytoplasmic p65 ratio, rep 2: 1.56
- low cell count flag: enough cells to score
- call: inactive

Ncapg2
- p65 translocation robust z-score: -0.33
- nuclear/cytoplasmic p65 ratio, rep 1: 1.3
- nuclear/cytoplasmic p65 ratio, rep 2: 1.44
- low cell count flag: enough cells to score
- call: inactive

Gramd1b
- nuclear/cytoplasmic p65 ratio, rep 1: 1.15
- nuclear/cytoplasmic p65 ratio, rep 2: 1.06
- low cell count flag: fewer than 50 cells per well; well left out of scoring
- call: inactive

Glipr1
- p65 translocation robust z-score: -0.97
- nuclear/cytoplasmic p65 ratio, rep 1: 1.39
- nuclear/cytoplasmic p65 ratio, rep 2: 1.18
- low cell count flag: enough cells to score
- call: inactive

Dhx15
- p65 translocation robust z-score: -3.4
- nuclear/cytoplasmic p65 ratio, rep 1: 1.05
- nuclear/cytoplasmic p65 ratio, rep 2: 1.23
- low cell count flag: enough cells to score
- call: active

Zer1
- nuclear/cytoplasmic p65 ratio, rep 1: 1.11
- nuclear/cytoplasmic p65 ratio, rep 2: 1.24
- low cell count flag: fewer than 50 cells per well; well left out of scoring
- call: inactive

Meis1
- p65 translocation robust z-score: 0.17
- nuclear/cytoplasmic p65 ratio, rep 1: 1.72
- nuclear/cytoplasmic p65 ratio, rep 2: 1.59
- low cell count flag: enough cells to score
- call: inactive

Hcfc1r1
- p65 translocation robust z-score: 0.38
- nuclear/cytoplasmic p65 ratio, rep 1: 1.78
- nuclear/cytoplasmic p65 ratio, rep 2: 1.53
- low cell count flag: enough cells to score
- call: inactive

Or4c123
- p65 translocation robust z-score: -1.88
- nuclear/cytoplasmic p65 ratio, rep 1: 1.46
- nuclear/cytoplasmic p65 ratio, rep 2: 1.22
- low cell count flag: enough cells to score
- call: active

Aplp1
- p65 translocation robust z-score: 0.71
- nuclear/cytoplasmic p65 ratio, rep 1: 1.76
- nuclear/cytoplasmic p65 ratio, rep 2: 1.69
- low cell count flag: enough cells to score
- call: inactive

Ufc1
- nuclear/cytoplasmic p65 ratio, rep 1: 1.3
- nuclear/cytoplasmic p65 ratio, rep 2: 1.35
- low cell count flag: fewer than 50 cells per well; well left out of scoring
- call: inactive

Mettl4
- p65 translocation robust z-score: -0.57
- nuclear/cytoplasmic p65 ratio, rep 1: 1.31
- nuclear/cytoplasmic p65 ratio, rep 2: 1.44
- low cell count flag: enough cells to score
- call: inactive

Mesd
- p65 translocation robust z-score: 1.18
- nuclear/cytoplasmic p65 ratio, rep 1: 1.23
- nuclear/cytoplasmic p65 ratio, rep 2: 1.49
- low cell count flag: enough cells to score
- call: inactive

Hip1r
- p65 translocation robust z-score: 2.66
- nuclear/cytoplasmic p65 ratio, rep 1: 0
- nuclear/cytoplasmic p65 ratio, rep 2: 1.94
- low cell count flag: enough cells to score
- call: inactive

Ntpcr
- nuclear/cytoplasmic p65 ratio, rep 1: 1.33
- nuclear/cytoplasmic p65 ratio, rep 2: 1.08
- low cell count flag: fewer than 50 cells per well; well left out of scoring
- call: inactive

Itgb1
- p65 translocation robust z-score: -0.32
- nuclear/cytoplasmic p65 ratio, rep 1: 1.47
- nuclear/cytoplasmic p65 ratio, rep 2: 1.31
- low cell count flag: enough cells to score
- call: inactive

Esrp2
- nuclear/cytoplasmic p65 ratio, rep 1: 1.5
- nuclear/cytoplasmic p65 ratio, rep 2: 1.38
- low cell count flag: fewer than 50 cells per well; well left out of scoring
- call: inactive

Auh
- p65 translocation robust z-score: -0.16
- nuclear/cytoplasmic p65 ratio, rep 1: 1.69
- nuclear/cytoplasmic p65 ratio, rep 2: 1.5
- low cell count flag: enough cells to score
- call: inactive

Pcdhb10
- p65 translocation robust z-score: -0.5
- nuclear/cytoplasmic p65 ratio, rep 1: 1.47
- nuclear/cytoplasmic p65 ratio, rep 2: 1.19
- low cell count flag: enough cells to score
- call: inactive

2 entries already listed, ordered by “nuclear/cytoplasmic p65 ratio, rep 1”, high to low.
Ncapg2
- p65 translocation robust z-score: -0.33
- nuclear/cytoplasmic p65 ratio, rep 1: 1.3
- nuclear/cytoplasmic p65 ratio, rep 2: 1.44
- low cell count flag: enough cells to score
- call: inactive

Gramd1b
- nuclear/cytoplasmic p65 ratio, rep 1: 1.15
- nuclear/cytoplasmic p65 ratio, rep 2: 1.06
- low cell count flag: fewer than 50 cells per well; well left out of scoring
- call: inactive
